Source: paper PMC9110732
These are yes or no findings as the source states them, for the method shown. In cells and extracts the contact can be indirect. Here binding means that the protein was enriched with, or labelled near, the bait; the list need not be complete.

Biological target: T1, trans-2,3-enoyl-CoA reductase-like (TECRL) (human (endogenous in hiPSC-CMs)) (UniProt Q5HYJ1)
T1 sequence: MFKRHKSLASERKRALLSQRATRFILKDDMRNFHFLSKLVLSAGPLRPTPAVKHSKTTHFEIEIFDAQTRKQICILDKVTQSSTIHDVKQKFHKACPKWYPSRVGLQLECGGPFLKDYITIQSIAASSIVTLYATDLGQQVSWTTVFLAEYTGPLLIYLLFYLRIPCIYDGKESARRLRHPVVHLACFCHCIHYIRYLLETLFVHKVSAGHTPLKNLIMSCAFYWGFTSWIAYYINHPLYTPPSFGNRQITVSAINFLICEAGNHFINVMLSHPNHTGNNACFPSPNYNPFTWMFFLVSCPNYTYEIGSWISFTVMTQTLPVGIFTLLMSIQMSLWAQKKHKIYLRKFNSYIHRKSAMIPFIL
Experiment: affinity purification with mass spectrometry; mass spectrometry of the TECRL co-immunoprecipitate from hiPSC-CMs overexpressing TECRL (Table S6)

binding: binds
Substance: ATP synthase subunit beta, mitochondrial (ATPB) (from UniProt P06576 48-529)
